Assay results as given in PMC6449396.
No constants are given. Whether binding was seen depends on the method and setting. In cells and extracts the contact can be indirect. Binding calls can cover weak binding; strength is not graded here. Where a sequence is shown, tags or fusion partners need not be part of it.

Key:
[1] = biological target: T1, MBP-Mad1 (full length) (human) (UniProt Q9Y6D9); experiment: pull-down; MBP constructs and PML constructs co-expressed in BL21 E. coli; lysate (50 mM HEPES pH 7.6, 100 mM NaCl, 1 mM DTT) treated with SUMO protease overnight at 4 °C, amylose resin 1 h at 4 °C, eluted with 10 mM maltose, immunoblot
T1 sequence: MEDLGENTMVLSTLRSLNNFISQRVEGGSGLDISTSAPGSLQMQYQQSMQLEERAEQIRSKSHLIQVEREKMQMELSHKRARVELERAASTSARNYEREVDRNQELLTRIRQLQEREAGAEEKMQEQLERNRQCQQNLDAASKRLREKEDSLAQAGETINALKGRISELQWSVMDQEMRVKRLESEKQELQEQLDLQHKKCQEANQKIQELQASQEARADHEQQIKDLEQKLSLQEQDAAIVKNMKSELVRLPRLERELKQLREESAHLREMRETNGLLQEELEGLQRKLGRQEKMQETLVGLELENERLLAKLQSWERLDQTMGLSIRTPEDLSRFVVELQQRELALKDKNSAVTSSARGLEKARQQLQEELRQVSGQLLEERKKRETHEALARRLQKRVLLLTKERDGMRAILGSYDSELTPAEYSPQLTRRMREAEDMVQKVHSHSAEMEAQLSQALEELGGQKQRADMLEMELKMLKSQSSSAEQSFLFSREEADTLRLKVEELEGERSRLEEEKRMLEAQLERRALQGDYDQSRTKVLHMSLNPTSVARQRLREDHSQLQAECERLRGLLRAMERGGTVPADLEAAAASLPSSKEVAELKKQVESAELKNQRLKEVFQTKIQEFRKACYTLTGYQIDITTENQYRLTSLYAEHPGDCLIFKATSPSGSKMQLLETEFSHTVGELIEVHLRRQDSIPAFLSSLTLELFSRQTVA

[2] = biological target: T2, MBP-Mad1(CTD) (human) (UniProt Q9Y6D9); experiment: as above
T2 sequence: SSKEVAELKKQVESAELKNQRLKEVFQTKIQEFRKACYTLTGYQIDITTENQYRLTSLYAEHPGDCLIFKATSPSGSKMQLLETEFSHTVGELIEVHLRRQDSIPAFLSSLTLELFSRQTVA

In the case of “recombinant PML (from Smt3p-PML) (from UniProt P29590-5)”, the binding [1] is reported as “binds” and the binding [2] is reported as “binds”.
